# Results taken from PubChem BioAssay AID1347076 (National Center for Advancing Translational Sciences (NCATS), 2019).
# Out of some 400,000 compounds screened, about 13,000 (3.2%) were called active. The inconclusive results got no clear call from the source; some entries with a clear call stand among them for comparison. Calls follow the shape of the dose curve; as a rule, active = well fitted cell-killing curve with a large enough effect; inconclusive = small, poorly fitted or top-dose-only effect, or effect the other way; inactive = flat fitted curve, though single readings scatter. Potencies beside an inconclusive call are fits to weak or partial responses and may not hold up.
# Assay: qHTS assay for MDR1-selective chemotherapeutics: Primary screen using the drug-selected MDR subline cells KB-V1; also: nearly all actives have a fitted effect of over 60% in size
# Conditions: KB-V1 MDR cells viability, CellTiter-Glo, 72 h; activity change, negative = cytotoxicity: at 46.1 µM (top of the series)
# Outline: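 Following 72 h at 37 degrees C with compound, KB-V1 cell viability was read by CellTiter-Glo luminescence, medium being phenol-red-free DMEM plus 10% FBS; concentration-response parameters came from normalized, curve-fitted qHTS data.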
# % is scaled to controls: 0 for no effect and ±100 for the full control effect; potency is read from the fitted curve at half-maximal effect.
SMILES,"activity change, negative = cytotoxicity",Potency
OC(CNCc1ccccc1F)COc1cccc2ccccc12 (configuration not stated),inactive: -19.4%,–
COc1ccc(/C(O)=C/Sc2nnc(Cc3ccccc3)o2)cc1,–,"inconclusive: 20.6 µM [cytotoxic, partial curve, poor fit]"
COc1cc(C(=O)Nc2c(C(=O)O)[nH]c3ccccc23)cc(OC)c1OC,inconclusive: 12.9%,–
CCc1nnc(NS(=O)(=O)c2ccc(N=Cc3c(C)[nH]n(-c4ccc(C)c(C)c4)c3=O)cc2)s1,–,"inconclusive: 23.1 µM [cytotoxic, single point]"
CCCCOc1ccc(CSCCN)cc1Cl,inactive: 2.4%,–
O=C(Nc1cccc(NC(=O)c2ccccc2)n1)c1ccccc1,–,"inconclusive: 20.6 µM [cytotoxic, single point]"
CCc1ccc([C@@H]2C[C@H]3[C@@H](CN2S(=O)(=O)c2ccc(C)cc2)C(=O)C[C@@H](c2ccccc2)N3S(=O)(=O)c2ccc(C)cc2)cc1,–,"inconclusive: 0.651 µM [rising, full curve, poor fit]"
COc1ccccc1N1CCCSC1=Nc1ccccc1,inactive: -26.1%,–
O=C(COc1ccc(S(=O)(=O)N2CCOCC2)cc1Cl)NCCCn1ccnc1,inactive: 23.1%,–
Cc1ccc(S(=O)(=O)N2CCCCC2)cc1NCC(=O)Nc1ccc(Br)cc1F,–,"inconclusive: 20.6 µM [cytotoxic, single point]"
CC(=O)NC(Cc1ccc(F)cc1)C(=O)NC1CCN(C(=O)Nc2ccccc2C)CC1 (configuration not stated),–,"inconclusive: 29.1 µM [rising, single point]"
CCOC(=O)CSc1cc(-c2ccccc2)nc2ncnn12,inactive: 1.09%,–
CC1CCCCN1C(=O)CCS(=O)(=O)c1cc2c(cc1Cl)NC(=O)CO2 (configuration not stated),–,inactive
COc1ccc(-c2coc(CCC(=O)N3CCN(c4cc(C)ccc4C)CC3)n2)cc1,–,"inconclusive: 0.82 µM [rising, full curve, poor fit]"
COc1ccc(C(N)c2csc(Nc3cc(Oc4ccccc4)ncn3)n2)cc1 (configuration not stated),inactive: 2.95%,–
CCn1cc(C(=O)NCCCN2CC(C)CC(C)C2)c(=O)c2cc(S(=O)(=O)N(C)C)ccc21 (configuration not stated),–,"inconclusive: 29.1 µM [rising, single point]"
O=C1CC2c3ccccc3C1C1C(=O)N(Cc3ccccc3)C(=O)C21 (configuration not stated),inactive: -2.99%,–
CC(=O)c1ccc(NC(=O)c2ccc3c(Cl)c4c(nc3c2)CCCC4)cc1,–,active: 16.4 µM
O=C(Nc1cccc2oc(=O)ccc12)c1ccc([N+](=O)[O-])cc1[N+](=O)[O-],–,"inconclusive: 3.66 µM [rising, partial curve, poor fit]"
CN(CC(=O)Nc1cccc(S(=O)(=O)N(C)C)c1)Cc1ccccc1,–,"inconclusive: 13 µM [cytotoxic, partial curve]"
CCS(=O)(=O)c1nc(S(=O)(=O)c2ccc(C)cc2)c(NC)s1,inactive: 0.839%,–
CCc1nc2ccc(C(=O)NCCOc3ccc(OC)cc3)cn2c1N(CC)CCOC,–,"inconclusive: 9.2 µM [cytotoxic, partial curve]"
COc1ccc(CN(Cc2ccccn2)C(=O)CN2C(=O)COc3ccccc32)cc1,–,"inconclusive: 16.4 µM [cytotoxic, partial curve]"
COc1ccc(CCNC(=O)C(C(=O)c2ccccc2)n2cc(Cl)ccc2=O)cc1OC (configuration not stated),–,active: 16.4 µM

# Some of these compounds in order of molecular weight, descending.
SMILES,"activity change, negative = cytotoxicity",Potency
COc1ccc(C(N)c2csc(Nc3cc(Oc4ccccc4)ncn3)n2)cc1 (configuration not stated),inactive: 2.95%,–
CC(=O)c1ccc(NC(=O)c2ccc3c(Cl)c4c(nc3c2)CCCC4)cc1,–,active: 16.4 µM
CCOC(=O)CSc1cc(-c2ccccc2)nc2ncnn12,inactive: 1.09%,–

# More compounds

SMILES,"activity change, negative = cytotoxicity",Potency
Fc1ccc2nc(Nc3nc4cc5c(cc4s3)OCCO5)sc2c1,–,"inconclusive: 29.1 µM [cytotoxic, single point]"
Cc1ccccc1Nc1c(-c2ccccc2)nc2cccc(C)n12,–,"inconclusive: 7.31 µM [rising, partial curve, poor fit]"
CCOC(=O)C1CCN(CC(O)COc2ccc(S(=O)(=O)N3CCCC3)cc2[N+](=O)[O-])CC1 (configuration not stated),–,"inconclusive: 23.1 µM [cytotoxic, single point]"
CCN(CC)S(=O)(=O)c1cc(NC(=O)c2cc(-c3ccccn3)nc3ccccc23)ccc1C,–,"inconclusive: 18.4 µM [cytotoxic, single point]"
COc1cc(CCCN2C(=S)NC[C@@H]2Cc2ccccc2)cc(OC)c1OC,–,"inconclusive: 18.4 µM [cytotoxic, single point]"
Cc1ccccc1N1CCN(S(=O)(=O)c2ccc3ccccc3c2)CC1,–,"inconclusive: 29.1 µM [cytotoxic, single point]"
Cc1ccccc1OCC(=O)Nc1nnc(C2CCCC2)s1,inconclusive: 48.8%,–
CCC(NC(=S)NCc1ccc(F)cc1)c1ccc(C)cc1 (configuration not stated),–,"inconclusive: 29.1 µM [cytotoxic, single point]"
C/C(=N\NC(=O)c1ccc(C)cc1)C1C(=O)c2ccccc2C1=O,–,"inconclusive: 16.4 µM [cytotoxic, single point]"
Cc1cc(C(=O)N2CCN(S(=O)(=O)c3ccccc3F)CC2)c(C)o1,inactive: -1.31%,–
O=C1/C(=C\c2cc(Cl)c(O)c(Cl)c2)SC(=S)N1Cc1ccccc1,–,active: 3.66 µM
COc1ccc2c(c1)sc1ncc(C(=O)NCc3cccc(C)c3)c(=O)n12,inconclusive: 42.8%,–
CC(C)(C)NC(=O)C(c1ccco1)N(Cc1ccc(F)cc1)C(=O)c1snc(C(N)=O)c1N (configuration not stated),–,active: 18.4 µM
CCN(C(=O)c1cn(CC(C)C)c(=O)c2cc(OC)c(OC)cc12)c1cc(OC)ccc1OC,inactive: -15%,–
COc1ccc(CCNC(=O)c2cn(C)c3ccc(S(=O)(=O)N(C)C)cc3c2=O)cc1OC,–,"inconclusive: 29.1 µM [rising, single point]"
CC(=O)Nc1ccc(S(=O)(=O)N(C)CC(=O)OCC(=O)N2CCCC2=O)cc1,–,"inconclusive: 20.6 µM [rising, single point]"
CCCCNc1c(-c2cccc(SC(C)CC)c2)nc2ccc(Cl)cn12 (configuration not stated),–,"inconclusive: 9.2 µM [cytotoxic, partial curve]"
Cc1ccc(-c2nn(C)c(=O)c3ccccc23)cc1CNC(=O)c1ccccc1,–,"inconclusive: 5.17 µM [cytotoxic, full curve]"
CN(C)/C=C1\C(=O)ON=C1c1ccccc1,inactive: -1.52%,–
COCCN(CC(=O)Nc1cccc(C)c1C)C(=O)C1CCN(S(=O)(=O)c2ccccc2)CC1,–,active: 9.2 µM
CCOC(=O)N1CCC(NC(=O)C2CCCN(Cc3nc(-c4cccc(C)c4)oc3C)C2)CC1 (configuration not stated),–,"inconclusive: 2.31 µM [cytotoxic, partial curve, poor fit]"
Cn1c(SCC(=O)N2CCN(c3cccc(Cl)c3)CC2)nnc1-c1ccncc1,–,active: 16.4 µM
Cc1ccccc1OCc1nnc(SCC(=O)NC2CCCCC2)o1,–,"inconclusive: 2.59 µM [rising, partial curve, poor fit]"
O=C1Nc2ccccc2CCC1Sc1nnc(-c2ccc(Cl)cc2)s1 (configuration not stated),–,active: 18.4 µM

SMILES,"activity change, negative = cytotoxicity",Potency
COc1ccc(CC(=O)NCCS(=O)(=O)N2CCN(c3ccc(F)cc3)CC2)cc1OC,inactive: -22.4%,–
CSc1nc(N)nc(SCCS(=O)(=O)c2ccc(Cl)cc2)c1C#N,–,"inconclusive: 18.4 µM [cytotoxic, partial curve, poor fit]"
COc1cccc2c1C1(O)C2CCCCCCCCCC12OCCCO2 (configuration not stated),inactive: -18.1%,–
COc1ccccc1OCCN1CSC(=S)N(C)C1,–,"inconclusive: 29.1 µM [cytotoxic, single point]"
COc1ccccc1N(C(=O)c1snc(C(N)=O)c1N)C(C(=O)NC1CCCC1)c1ccco1 (configuration not stated),inactive: 9.43%,–
O=c1c2cccnc2nc2n1CCCCC2,–,"inconclusive: 29.1 µM [rising, single point]"
O=C(CSc1ncnc2c1cnn2-c1ccccc1)NCC1CCCO1 (configuration not stated),–,"inconclusive: 23.1 µM [cytotoxic, single point]"
CCOC(=O)C1=C(C)Nc2ccccc2N=C1NC(=O)Cc1ccc(OC)cc1,–,"inconclusive: 7.31 µM [cytotoxic, partial curve]"
CCN=C1S/C(=C\c2ccc(N3CCOCC3)cc2C)C(=O)N1CC,–,"inconclusive: 2.91 µM [cytotoxic, partial curve, poor fit]"
O=C(c1cccnc1)N1CCN(Cc2ccc3ccccc3c2)CC1,–,"inconclusive: 2.31 µM [cytotoxic, full curve]"
O=C(Nc1ccccc1)c1ccc(S(=O)(=O)NCc2cccnc2)cc1,–,active: 20.6 µM
COC(=O)c1ccc(NC(=O)c2ccccc2NS(=O)(=O)c2ccccc2)cc1,–,"inconclusive: 16.4 µM [cytotoxic, single point]"
CN(c1ccccc1)S(=O)(=O)c1cccc(NC(=O)CSc2ncc(C(F)(F)F)cc2Cl)c1,inactive: 2.15%,–
Cc1ccc(NC(=O)CCc2ccccc2)cc1C,inactive: 4.08%,–
Cc1ccc(C(=O)N/C(=C/c2cccs2)C(=O)NCCc2c[nH]c3ccccc23)cc1,–,"inconclusive: 3.66 µM [cytotoxic, partial curve]"
CCOc1cccc(C(=O)Nc2cc(C)ccc2NC(=O)c2ccco2)c1,inactive: 12.8%,–
Cc1ccc(-n2cc(C(=O)c3cc(Cl)ccc3O)cc(C#N)c2=O)cc1,–,active: 16.4 µM
CCN1CCN(CC(=O)Nc2nc3ccccc3s2)CC1,inactive: 13.5%,–
CCCOc1ccc(C(=O)Nc2ccc(NC(=O)c3ccccc3)c(C)c2)cc1,inactive: 7.61%,–
CCNC(=S)NNC(=O)c1cc(-c2ccc(OC)cc2)nc2ccccc12,–,active: 9.2 µM
CCOC(=O)c1ccc(NC(=O)Cn2ncc(Cl)c(Cl)c2=O)cc1,–,"inconclusive: 9.2 µM [cytotoxic, partial curve]"
O=C(O)CC1S/C(=N/N=C/c2ccc(-c3ccc(Cl)cc3[N+](=O)[O-])o2)NC1=O (configuration not stated),inactive: 5.38%,–
CC(=O)Nc1nnc(SCC(=O)NCCOc2ccccc2)s1,–,"inconclusive: 25.9 µM [rising, single point]"
COc1cc2ccccc2cc1C(=O)Nc1ccc(CN2CCOCC2)cc1,–,"inconclusive: 7.31 µM [cytotoxic, partial curve, poor fit]"

# Some of the entries above in another layout.
SMILES	activity change, negative = cytotoxicity	Potency
O=C(CSc1ncnc2c1cnn2-c1ccccc1)NCC1CCCO1 (configuration not stated)	–	inconclusive: 23.1 µM [cytotoxic, single point]
Cc1ccc(C(=O)N/C(=C/c2cccs2)C(=O)NCCc2c[nH]c3ccccc23)cc1	–	inconclusive: 3.66 µM [cytotoxic, partial curve]
CCN1CCN(CC(=O)Nc2nc3ccccc3s2)CC1	inactive: 13.5%	–
